The record followed here is PMC8483905.

Sequences of proteins named here, by UniProt entry; tags and fusion partners are left off.
UniProt O88643: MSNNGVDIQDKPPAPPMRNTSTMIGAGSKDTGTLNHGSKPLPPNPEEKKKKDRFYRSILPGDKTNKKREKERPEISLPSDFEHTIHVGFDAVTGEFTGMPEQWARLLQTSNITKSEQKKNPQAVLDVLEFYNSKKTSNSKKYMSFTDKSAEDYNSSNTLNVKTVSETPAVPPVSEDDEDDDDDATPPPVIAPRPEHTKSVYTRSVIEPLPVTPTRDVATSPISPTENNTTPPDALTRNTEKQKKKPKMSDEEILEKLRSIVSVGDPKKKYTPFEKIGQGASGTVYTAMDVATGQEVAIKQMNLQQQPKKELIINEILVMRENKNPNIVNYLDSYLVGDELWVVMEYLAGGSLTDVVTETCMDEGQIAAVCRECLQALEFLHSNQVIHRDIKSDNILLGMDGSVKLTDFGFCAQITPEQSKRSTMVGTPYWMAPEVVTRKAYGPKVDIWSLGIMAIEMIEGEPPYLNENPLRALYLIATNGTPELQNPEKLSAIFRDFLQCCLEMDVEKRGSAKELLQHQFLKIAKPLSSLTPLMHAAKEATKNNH
UniProt P37238: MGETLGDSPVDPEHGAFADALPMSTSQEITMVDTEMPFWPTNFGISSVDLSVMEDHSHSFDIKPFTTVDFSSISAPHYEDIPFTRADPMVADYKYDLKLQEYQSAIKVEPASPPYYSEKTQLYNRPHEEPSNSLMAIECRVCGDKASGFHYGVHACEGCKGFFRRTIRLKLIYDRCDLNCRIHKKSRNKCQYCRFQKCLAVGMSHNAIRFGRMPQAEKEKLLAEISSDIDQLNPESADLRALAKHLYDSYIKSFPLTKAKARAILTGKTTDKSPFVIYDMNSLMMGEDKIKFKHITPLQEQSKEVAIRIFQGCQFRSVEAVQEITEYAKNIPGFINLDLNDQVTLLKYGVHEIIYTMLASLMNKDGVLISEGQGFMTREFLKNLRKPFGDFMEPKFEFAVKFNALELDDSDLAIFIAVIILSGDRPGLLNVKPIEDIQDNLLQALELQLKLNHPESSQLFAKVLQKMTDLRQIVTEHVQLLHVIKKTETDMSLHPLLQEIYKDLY

This experiment concerns the target P21-activated kinases 1 (PAK1) (mouse (endogenous in BMDMs)) (UniProt O88643). Briefly: co-IP; endogenous proteins in BMDM lysate; precleared with immunoglobulin G and protein A beads; immunoprecipitation with PAK1 antibody and protein A-agarose at 4°C overnight, five washes with lysis buffer; immunoblot with PPARγ or PAK1 antibody.

These are yes or no findings as the source states them, for the method shown. Binding seen in cells or lysates may run through a third protein. Some entries that bind do so weakly or less than the wild type.

As to “peroxisome proliferator-activated receptor γ (PPARγ) (from UniProt P37238 1-505)”, the binding result is given as “binds”.
